In publication PMC5503580:
No constants are given. Whether binding was seen depends on the method and setting. In cells and extracts the contact can be indirect. Some entries that bind do so weakly or less than the wild type.

Amino acid sequences for entries named in this document (tags omitted). Residues count along the entry.
UniProt P35968, residues 20-1356: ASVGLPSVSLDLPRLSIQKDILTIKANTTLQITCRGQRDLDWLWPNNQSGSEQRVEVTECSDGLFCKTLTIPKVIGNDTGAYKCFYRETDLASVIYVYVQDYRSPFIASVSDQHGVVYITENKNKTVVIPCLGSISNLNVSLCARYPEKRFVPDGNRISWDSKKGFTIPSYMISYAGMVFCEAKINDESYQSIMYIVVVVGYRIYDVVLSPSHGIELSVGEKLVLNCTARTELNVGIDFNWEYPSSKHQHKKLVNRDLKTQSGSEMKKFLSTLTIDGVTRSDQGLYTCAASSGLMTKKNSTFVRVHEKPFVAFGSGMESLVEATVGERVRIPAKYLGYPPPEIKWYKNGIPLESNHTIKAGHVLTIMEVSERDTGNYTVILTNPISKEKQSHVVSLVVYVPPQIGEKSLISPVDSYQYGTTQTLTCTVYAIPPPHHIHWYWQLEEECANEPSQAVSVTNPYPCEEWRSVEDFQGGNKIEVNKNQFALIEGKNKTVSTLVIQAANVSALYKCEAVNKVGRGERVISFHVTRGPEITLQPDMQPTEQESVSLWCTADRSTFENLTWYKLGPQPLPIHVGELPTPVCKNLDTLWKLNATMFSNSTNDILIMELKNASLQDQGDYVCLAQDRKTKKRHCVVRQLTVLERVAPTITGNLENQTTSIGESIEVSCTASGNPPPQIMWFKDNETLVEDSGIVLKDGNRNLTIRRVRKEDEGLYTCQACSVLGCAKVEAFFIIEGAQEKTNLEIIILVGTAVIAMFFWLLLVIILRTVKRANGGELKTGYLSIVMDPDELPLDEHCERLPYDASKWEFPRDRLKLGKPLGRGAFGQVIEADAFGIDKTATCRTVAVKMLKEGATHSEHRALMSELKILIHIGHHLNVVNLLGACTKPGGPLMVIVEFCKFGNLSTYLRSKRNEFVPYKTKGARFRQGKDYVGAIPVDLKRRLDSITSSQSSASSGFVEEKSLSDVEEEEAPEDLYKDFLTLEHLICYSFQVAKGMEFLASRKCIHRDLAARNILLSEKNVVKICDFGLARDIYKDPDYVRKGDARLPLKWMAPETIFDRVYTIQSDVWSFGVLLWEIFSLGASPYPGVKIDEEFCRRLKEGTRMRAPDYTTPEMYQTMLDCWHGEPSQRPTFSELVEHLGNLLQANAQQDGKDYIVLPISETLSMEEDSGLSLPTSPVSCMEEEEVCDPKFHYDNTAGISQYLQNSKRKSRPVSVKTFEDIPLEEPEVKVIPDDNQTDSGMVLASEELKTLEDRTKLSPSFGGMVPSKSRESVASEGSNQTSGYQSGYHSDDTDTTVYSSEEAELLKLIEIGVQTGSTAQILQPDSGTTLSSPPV
UniProt P52799, residues 28-333: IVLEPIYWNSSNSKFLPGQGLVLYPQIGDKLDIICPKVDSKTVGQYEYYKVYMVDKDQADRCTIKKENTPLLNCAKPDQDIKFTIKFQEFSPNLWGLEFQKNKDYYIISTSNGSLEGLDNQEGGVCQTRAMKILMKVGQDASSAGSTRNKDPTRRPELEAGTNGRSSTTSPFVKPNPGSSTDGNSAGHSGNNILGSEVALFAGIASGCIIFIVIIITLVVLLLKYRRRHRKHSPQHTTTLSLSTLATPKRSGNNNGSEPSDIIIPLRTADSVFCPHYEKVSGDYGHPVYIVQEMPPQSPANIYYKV
UniProt O00560: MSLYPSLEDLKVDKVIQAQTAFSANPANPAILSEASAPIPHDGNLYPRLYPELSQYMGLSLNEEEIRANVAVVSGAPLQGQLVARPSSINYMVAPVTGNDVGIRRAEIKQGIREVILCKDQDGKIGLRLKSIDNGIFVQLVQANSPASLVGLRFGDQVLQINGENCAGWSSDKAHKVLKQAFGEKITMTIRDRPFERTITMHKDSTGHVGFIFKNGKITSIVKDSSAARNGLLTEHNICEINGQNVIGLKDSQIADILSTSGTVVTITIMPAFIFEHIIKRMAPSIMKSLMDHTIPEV

Assays:
[1] = molecular target: VEGFR2 (transfected, pCMV-HA construct) (UniProt P35968); assay: co-IP; HEK293 cells transfected with VEGFR2 and Flag-syntenin; whole cell lysates immunoprecipitated with Flag or VEGFR2 antibody and protein A/G agarose; lysis buffer 50 mM Tris-HCl pH 7.4, 150 mM NaCl, 1 mM EDTA, 5 mM sodium orthovanadate, 1% NP-40
[2] = molecular target: VEGFR2 (endogenous, HUVEC) (human (endogenous in HUVEC)) (UniProt P35968); assay: co-IP; endogenous proteins in HUVEC whole cell lysates (untransfected, control siRNA or ephrin-B2 siRNA); immunoprecipitated with VEGFR2, ephrin-B2 or syntenin antibody and protein A/G agarose; lysis buffer 50 mM Tris-HCl pH 7.4, 150 mM NaCl, 1 mM EDTA, 5 mM sodium orthovanadate, 1% NP-40
[3] = molecular target: ephrin-B2 (endogenous, HUVEC) (human (endogenous in HUVEC)) (UniProt P52799); assay: as above

| binding [1] | binding [2] | binding [3] | Substance |
| --- | --- | --- | --- |
| binds |  |  | Flag-syntenin (from UniProt O00560 1-298) |
|  | binds | binds | syntenin (endogenous, HUVEC) (from UniProt O00560 1-298) |
